Reference: the supplement of paper PMC7661543
± gives the standard deviation of the averaged measurements. The effect of the compound repeats well; differences between the knockouts mostly do not.

Test system: ZR-75-1
Assay: relative cell number vs DMSO control (72 h) (% of DMSO); higher = less growth inhibition (more cells)
Procedure: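 QMAP-Seq: a pool of 5 breast cancer cell lines (ZR-75-1, SKBR3, HCC-38, MDA-MB-231, BT-20), each carrying 12 doxycycline-inducible Cas9 sgRNA perturbations (11 knockouts plus non-targeting sgNT), was treated with compounds for 72 h at four 10-fold doses (10 nM-10 uM or 1 nM-1 uM range). Barcodes were amplified and sequenced, and cell number was interpolated from 293T spike-in standard curves. The result is expressed as % of the median of DMSO wells. Two biological replicates.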

[1] = sgRNA knockout: sgATF3, 1000 nM
[2] = sgRNA knockout: sgATF3, 10000 nM
[3] = sgRNA knockout: sgATF4, 1000 nM
[4] = sgRNA knockout: sgATF4, 10000 nM
[5] = sgRNA knockout: sgATF6, 1000 nM
[6] = sgRNA knockout: sgATF6, 10000 nM
[7] = sgRNA knockout: sgATG7, 1000 nM
[8] = sgRNA knockout: sgATG7, 10000 nM
[9] = sgRNA knockout: sgERN1, 1000 nM
[10] = sgRNA knockout: sgERN1, 10000 nM
[11] = sgRNA knockout: sgHSF2, 1000 nM
[12] = sgRNA knockout: sgHSF2, 10000 nM
[13] = sgRNA knockout: sgNFE2L2, 10 nM
[14] = sgRNA knockout: sgNFE2L2, 100 nM
[15] = sgRNA knockout: sgNFE2L2, 1000 nM
[16] = sgRNA knockout: sgNFE2L2, 10000 nM
[17] = sgRNA knockout: sgSLC35F2, 10 nM
[18] = sgRNA knockout: sgSLC35F2, 100 nM
[19] = sgRNA knockout: sgSLC35F2, 1000 nM
[20] = sgRNA knockout: sgSLC35F2, 10000 nM
[21] = sgRNA knockout: sgXBP1, 1000 nM
[22] = sgRNA knockout: sgXBP1, 10000 nM

Row | Compound | relative cell number (sgRNA knockout: sgATF3, 10 nM) | relative cell number (sgRNA knockout: sgATF3, 100 nM) | relative cell number [1] | relative cell number (sgRNA knockout: sgATF4, 10 nM) | relative cell number (sgRNA knockout: sgATF4, 100 nM) | relative cell number [3] | relative cell number (sgRNA knockout: sgATF6, 10 nM) | relative cell number (sgRNA knockout: sgATF6, 100 nM) | relative cell number [5] | relative cell number (sgRNA knockout: sgATG7, 10 nM) | relative cell number (sgRNA knockout: sgATG7, 100 nM) | relative cell number [7] | relative cell number (sgRNA knockout: sgERN1, 10 nM) | relative cell number (sgRNA knockout: sgERN1, 100 nM) | relative cell number [9] | relative cell number (sgRNA knockout: sgHSF2, 10 nM) | relative cell number (sgRNA knockout: sgHSF2, 100 nM) | relative cell number [11] | relative cell number [13] | relative cell number [14] | further results
1 | CC(C)C[C@H](NC(=O)CNC(=O)c1cc(Cl)ccc1Cl)B(O)O [MLN2238] | 156 ± 11 | 76.1 ± 2 | 38.1 ± 12 | 84.1 ± 14 | 93.9 ± 29 | 33.7 ± 2.2 | 72.2 ± 12 | 73.1 ± 29 | 32.5 ± 14 | 138 ± 12 | 113 ± 40 | 45 ± 11 | 112 ± 16 | 108 ± 7.4 | 46.7 ± 5.3 | 145 ± 26 | 99.3 ± 9.2 | 37.9 ± 1.3 | 97.1 ± 18 | 55.8 ± 7.3 | relative cell number [2]: 18.2 ± 4.6; relative cell number [4]: 13.7 ± 7.5; relative cell number [6]: 13.2 ± 7.5; relative cell number [8]: 7.77 ± 0.67; relative cell number [10]: 13.1 ± 3.4; relative cell number [12]: 12 ± 1.8; relative cell number [15]: 21.7 ± 7.6; relative cell number [16]: 10.2 ± 2.8; relative cell number [17]: 92 ± 35; relative cell number [18]: 99.1 ± 58; relative cell number [19]: 16.1 ± 12; relative cell number [20]: 10.4 ± 1.4; relative cell number (sgRNA knockout: sgXBP1, 10 nM): 95.3 ± 8.2; relative cell number (sgRNA knockout: sgXBP1, 100 nM): 71.9 ± 17; relative cell number [21]: 35.2 ± 7.8; relative cell number [22]: 10.4 ± 5.5
2 | COc1cc(-n2c(=S)[nH]c3ccccc3c2=O)c(Cl)cc1Cl [Mdivi1] | 108 ± 19 | 71.7 ± 12 | 90.4 ± 28 | 55.2 ± 3.4 | 98.5 ± 27 | 78.4 ± 3.8 | 68.3 ± 8.2 | 113 ± 63 | 90.8 ± 2.5 | 99.1 ± 5.1 | 105 ± 67 | 102 ± 11 | 82.6 ± 4.8 | 92.77 ± 0.29 | 68 ± 16 | 96.9 ± 5.1 | 98.4 ± 15 | 77.6 ± 32 | 98.4 ± 12 | 89 ± 6.3 | relative cell number [2]: 68.7 ± 8.2; relative cell number [4]: 51.8 ± 3.9; relative cell number [6]: 38.3 ± 11; relative cell number [8]: 39.4 ± 3; relative cell number [10]: 48.4 ± 15; relative cell number [12]: 51.4 ± 2.9; relative cell number [15]: 73 ± 1.6; relative cell number [16]: 58.1 ± 21; relative cell number [17]: 37.9 ± 19; relative cell number [18]: 81.3 ± 33; relative cell number [19]: 56.1 ± 23; relative cell number [20]: 33.7 ± 16; relative cell number (sgRNA knockout: sgXBP1, 10 nM): 100 ± 23; relative cell number (sgRNA knockout: sgXBP1, 100 nM): 97.3 ± 3.7; relative cell number [21]: 78 ± 5.3; relative cell number [22]: 55.9 ± 13
3 | O=C1c2c(O)ccc(O)c2C(=O)c2c(NCCNCCO)ccc(NCCNCCO)c21 [Mitoxantrone] | 55.3 ± 2.5 | 28.9 ± 2.2 | 14.3 ± 4.5 | 66.4 ± 9.3 | 40.8 ± 8.6 | 11.7 ± 4.9 | 34.1 ± 11 | 16.7 ± 5.5 | 6.77 ± 1.6 | 45.2 ± 7.9 | 30.2 ± 13 | 10.5 ± 3.8 | 47.6 ± 14 | 27 ± 1.2 | 14.3 ± 2.1 | 46.1 ± 0.56 | 29.1 ± 8.3 | 9.77 ± 3 | 45.3 ± 14 | 27.2 ± 2.4 | relative cell number [2]: 9.41 ± 7.9; relative cell number [4]: 6.91 ± 2.7; relative cell number [6]: 5.08 ± 2.6; relative cell number [8]: 7.58 ± 4.8; relative cell number [10]: 8.85 ± 3.9; relative cell number [12]: 5.48 ± 1.5; relative cell number [15]: 11.3 ± 4.3; relative cell number [16]: 7.38 ± 3.9; relative cell number [17]: 46.2 ± 10; relative cell number [18]: 18.8 ± 11; relative cell number [19]: 9.14 ± 1.6; relative cell number [20]: 4 ± 2; relative cell number (sgRNA knockout: sgXBP1, 10 nM): 48 ± 6.5; relative cell number (sgRNA knockout: sgXBP1, 100 nM): 32.8 ± 3.5; relative cell number [21]: 10.2 ± 0.91; relative cell number [22]: 7.95 ± 2.5
4 | CCNC(=O)c1noc(-c2cc(C(C)C)c(O)cc2O)c1-c1ccc(CN2CCOCC2)cc1 [NVPAUY922] | 97.9 ± 2 | 30.3 ± 5.2 | 22.5 ± 6.5 | 83.1 ± 50 | 36.5 ± 19 | 15.8 ± 6.8 | 108 ± 9.1 | 20.7 ± 5.4 | 19.4 ± 11 | 62 ± 7.9 | 21 ± 1.7 | 20.7 ± 2.8 | 97.7 ± 3 | 35.4 ± 9.2 | 28.7 ± 9.8 | 73.6 ± 9.3 | 28.1 ± 1.6 | 21.5 ± 2.1 | 104 ± 1.6 | 24 ± 5.1 | relative cell number (sgRNA knockout: sgATF3, 1 nM): 90.9 ± 22; relative cell number (sgRNA knockout: sgATF4, 1 nM): 130 ± 8.1; relative cell number (sgRNA knockout: sgATF6, 1 nM): 78.4 ± 3.9; relative cell number (sgRNA knockout: sgATG7, 1 nM): 122 ± 8.7; relative cell number (sgRNA knockout: sgERN1, 1 nM): 96.5 ± 18; relative cell number (sgRNA knockout: sgHSF2, 1 nM): 117 ± 23; relative cell number (sgRNA knockout: sgNFE2L2, 1 nM): 128 ± 37; relative cell number [15]: 21.5 ± 4.8; relative cell number (sgRNA knockout: sgSLC35F2, 1 nM): 51.7 ± 39; relative cell number [17]: 86 ± 44; relative cell number [18]: 17.3 ± 6.3; relative cell number [19]: 18.8 ± 13; relative cell number (sgRNA knockout: sgXBP1, 1 nM): 115 ± 27; relative cell number (sgRNA knockout: sgXBP1, 10 nM): 94.4 ± 9.2; relative cell number (sgRNA knockout: sgXBP1, 100 nM): 25.2 ± 0.99; relative cell number [21]: 25.8 ± 5.4
5 | O=C(Nc1ccc([N+](=O)[O-])cc1Cl)c1cc(Cl)ccc1O [Niclosamide] | 96.4 ± 30 | 90.8 ± 16 | 86.7 ± 34 | 94.5 ± 26 | 80.4 ± 15 | 109 ± 7.4 | 80.8 ± 12 | 52 ± 23 | 86.7 ± 28 | 89.5 ± 35 | 71 ± 18 | 114 ± 16 | 99 ± 11 | 85.5 ± 3.4 | 102 ± 17 | 107 ± 39 | 77.9 ± 5.3 | 95.2 ± 6.5 | 103 ± 40 | 114 ± 11 | relative cell number [2]: 55.5 ± 2; relative cell number [4]: 69.5 ± 2.2; relative cell number [6]: 56.7 ± 14; relative cell number [8]: 48.2 ± 9; relative cell number [10]: 58.7 ± 12; relative cell number [12]: 42.9 ± 0.65; relative cell number [15]: 83.5 ± 13; relative cell number [16]: 43.9 ± 3.3; relative cell number [17]: 112 ± 72; relative cell number [18]: 95 ± 18; relative cell number [19]: 92.4 ± 29; relative cell number [20]: 70.2 ± 4.9; relative cell number (sgRNA knockout: sgXBP1, 10 nM): 99.1 ± 10; relative cell number (sgRNA knockout: sgXBP1, 100 nM): 83.1 ± 5; relative cell number [21]: 93.4 ± 10; relative cell number [22]: 43 ± 4.4
6 | Cc1cn(-c2cc(NC(=O)c3ccc(C)c(Nc4nccc(-c5cccnc5)n4)c3)cc(C(F)(F)F)c2)cn1 [Nilotinib] | 128 ± 17 | 110 ± 4.3 | 104 ± 26 | 138 ± 52 | 141 ± 12 | 98.3 ± 23 | 134 ± 23 | 81.7 ± 19 | 124 ± 46 | 70.1 ± 16 | 86.1 ± 28 | 102 ± 12 | 112 ± 31 | 89 ± 13 | 85.6 ± 24 | 97.5 ± 13 | 96.2 ± 29 | 101 ± 17 | 72.7 ± 3.5 | 108 ± 37 | relative cell number [2]: 54.6 ± 8.3; relative cell number [4]: 31.3 ± 26; relative cell number [6]: 81 ± 43; relative cell number [8]: 42.4 ± 23; relative cell number [10]: 44.3 ± 22; relative cell number [12]: 54.3 ± 7.5; relative cell number [15]: 98 ± 3.7; relative cell number [16]: 46 ± 12; relative cell number [17]: 50 ± 4.8; relative cell number [18]: 99.4 ± 24; relative cell number [19]: 138 ± 47; relative cell number [20]: 23.1 ± 6.2; relative cell number (sgRNA knockout: sgXBP1, 10 nM): 79.1 ± 12; relative cell number (sgRNA knockout: sgXBP1, 100 nM): 94.6 ± 46; relative cell number [21]: 86.2 ± 12; relative cell number [22]: 48.1 ± 1.5
7 | O=C(c1cc(Cc2n[nH]c(=O)c3ccccc23)ccc1F)N1CCN(C(=O)C2CC2)CC1 [Olaparib] | 86.6 ± 30 | 108 ± 4.4 | 108 ± 6.9 | 76.7 ± 27 | 77.9 ± 4.9 | 82.9 ± 39 | 73.3 ± 28 | 93.8 ± 6.1 | 72.8 ± 23 | 77.8 ± 8.8 | 76.7 ± 18 | 82.4 ± 22 | 99.9 ± 8.2 | 105 ± 14 | 71.3 ± 2.7 | 86.7 ± 7.8 | 103 ± 8.8 | 92.6 ± 24 | 107 ± 49 | 102 ± 8.7 | relative cell number [2]: 62.4 ± 10; relative cell number [4]: 73.7 ± 7.5; relative cell number [6]: 85 ± 16; relative cell number [8]: 73 ± 2.5; relative cell number [10]: 73.5 ± 18; relative cell number [12]: 58.3 ± 8.7; relative cell number [15]: 89.9 ± 51; relative cell number [16]: 55.6 ± 2.1; relative cell number [17]: 94.7 ± 13; relative cell number [18]: 65.9 ± 15; relative cell number [19]: 102 ± 14; relative cell number [20]: 65.2 ± 3.5; relative cell number (sgRNA knockout: sgXBP1, 10 nM): 90.2 ± 36; relative cell number (sgRNA knockout: sgXBP1, 100 nM): 96.1 ± 3.9; relative cell number [21]: 79.5 ± 9.9; relative cell number [22]: 63.5 ± 7.8
